# Test results reported in PubChem BioAssay AID1487 (National Center for Advancing Translational Sciences (NCATS), 2009).
# The other results are listed elsewhere or left out. The main result of the screen is listed elsewhere. These columns were measured beside it and carry no call. The list favours compounds with an active or inconclusive main result. Potencies come from curve fits of mixed quality, noted in brackets.
# Assay: qHTS Assay for Modulators of Lamin A Splicing
# Conditions: HeLa LMNA splicing GFP/RFP minigene ratio, 48 h
# Procedure, shortened: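 S3 HeLa stable clones carrying a lamin A-EGFP splicing minigene plus DsRed2 were seeded at 600 cells/well in Opti-MEM with 2% FBS, pin-dosed and incubated 48 h at 37°C. Acumen cytometry (488 nm) gave the GFP/RFP total-intensity ratio.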
# [1] = measured here: RFP viability control channel
# [2] = measured here: GFP splicing reporter channel
SMILES,AC50 [1],AC50 [2]
CCSc1ccccc1C(=O)N1CCN(c2ccc([N+](=O)[O-])cc2)CC1,"0.00355 µM [falling, full curve, poor fit]",
CC[n+]1c(/C=C/N(C)c2ccccc2)oc2ccc(F)cc21,"12.6 µM [rising, partial curve]","10 µM [rising, partial curve]"
COc1cc2cc(CN(CCc3cccc(C)c3)C(=S)NCCCN3CCOCC3)c(=O)[nH]c2cc1OC,,"31.6 µM [falling, single point]"
Cc1sc2nc(SCC(=O)NCCOCCO)nc(N)c2c1C,"1.26 µM [falling, full curve]",
Cc1nc2ccc(NS(=O)(=O)c3c(C)c(C)cc(C)c3C)cc2s1,"3.16 µM [rising, full curve]","3.98 µM [rising, full curve]"
CC(C)C(c1nnnn1Cc1ccccc1)N(Cc1ccco1)Cc1cccs1 (stereo not drawn),"15.8 µM [rising, single point]","11.2 µM [rising, partial curve]"
Cc1ccc(S(=O)(=O)/C(C#N)=C/c2ccccc2OCc2ccccc2)cc1,"35.5 µM [rising, single point]","35.5 µM [rising, single point]"
O=C(CSc1nnc(CN2CCOCC2)n1-c1ccc(Cl)cc1)Nc1cc(Cl)ccc1O,"17.8 µM [rising, single point]","10 µM [rising, single point]"
COc1ccc(-c2nc3ccccc3o2)cc1NC(=O)COc1ccc(C)c(C)c1,"35.5 µM [falling, single point]","35.5 µM [falling, single point]"
CCc1ccc(-c2ccc(SCc3ccccn3)nn2)cc1,,"0.0251 µM [rising, full curve, poor fit]"
COc1ccc(Br)cc1CNC(=O)c1cc(=O)[nH]c2ccc(S(=O)(=O)N3CCCCC3C)cc12 (stereo not drawn),,"28.2 µM [falling, single point]"
Cc1cccc(Nc2nc3c(s2)CCCC3)c1,"14.1 µM [rising, partial curve]",
Cc1cc(NC2CCCCC2)nc(-c2ccccc2O)n1,"35.5 µM [rising, single point]","35.5 µM [rising, single point]"
COc1ccc2nc(NC(=O)CSc3ccccc3)sc2c1,,"39.8 µM [rising, partial curve, poor fit]"
COc1ccc(NC(=O)c2c(NCc3cccc(F)c3)sc3c2CCC3)c(OC)c1,"22.4 µM [falling, single point]",
O=C(c1ccccc1)c1c[nH]c2cc3c(cc2c1=O)OCCO3,"15.8 µM [rising, single point]",
CCc1ccc(OCc2ccc(C(=O)NCc3ccccn3)o2)cc1,"14.1 µM [rising, single point]",
CC(=O)N1CCc2[nH]c3ccccc3c2C1,"14.1 µM [falling, partial curve, poor fit]",
Cc1noc(C)c1CSc1nnc2scc(-c3ccc(Cl)cc3)n12,"11.2 µM [rising, partial curve, poor fit]","12.6 µM [rising, partial curve, poor fit]"

# Laid out differently: results already given.
SMILES | AC50 [1] | AC50 [2]
CCc1ccc(-c2ccc(SCc3ccccn3)nn2)cc1 |  | 0.0251 µM [rising, full curve, poor fit]
COc1ccc2nc(NC(=O)CSc3ccccc3)sc2c1 |  | 39.8 µM [rising, partial curve, poor fit]

# Continued:

SMILES,AC50 [1],AC50 [2]
COc1ccc(-c2nsc(SCC(=O)NCC3CCCO3)n2)cc1 (stereo not drawn),"0.316 µM [falling, full curve]",
CCCc1[nH]nc2c1C(c1ccoc1)C(C#N)=C(N)O2 (stereo not drawn),"12.6 µM [rising, single point]","20 µM [rising, single point]"
C=CCN1N=C(c2ccc(NC(=O)c3ccccc3)cc2)CSC1=O,"1.78 µM [falling, full curve, poor fit]",
CC(=O)Nc1ccc(SCC(=O)c2cc(C)n(-c3ccccc3F)c2C)cc1,"11.2 µM [rising, partial curve]","7.94 µM [rising, partial curve, poor fit]"
CCOC(=O)C1CN(C(C)(C)C)C(=O)C1=O (stereo not drawn),,"0.251 µM [falling, full curve, poor fit]"
O=C(Nc1nc(-c2ccccn2)cs1)c1ncc(Cl)c(Cl)c1Cl,"35.5 µM [falling, partial curve]","25.1 µM [falling, single point]"
CC(C)c1ccc(NC(=O)CN(Cc2ccccc2)S(C)(=O)=O)cc1,"0.501 µM [rising, partial curve]",
Cc1sc(-n2c(C)cc(/C=N/n3cnnc3)c2C)c(C#N)c1C,"17.8 µM [rising, single point]","35.5 µM [rising, single point]"
COc1ccc(-c2nc(NC(C)=O)sc2-c2ccc(OC)cc2)cc1,"1.26 µM [falling, single point]",
COc1ccc(O)c(/C=N\NC(=O)CCn2nnc3ccccc32)c1,"31.6 µM [rising, single point]",
CCCn1c(CN(Cc2ccccc2)Cc2ccccc2)nc2c1c(=O)n(C)c(=O)n2C,"35.5 µM [rising, single point]","35.5 µM [rising, single point]"
CSc1c(SCc2ccccc2)cnn(-c2ccccc2)c1=O,"12.6 µM [rising, single point]",
Cc1ccc(-c2cc(C(F)F)n3ncc(C(=O)N4CCc5ccccc54)c3n2)cc1,,"0.0447 µM [falling, full curve, poor fit]"
O=C1NC(NS(=O)(=O)c2ccccc2)(C(F)(F)F)C(=O)N1Cc1cccnc1 (stereo not drawn),"0.562 µM [falling, single point]",
Cc1cc2cc(CNC(=O)c3cccc([N+](=O)[O-])c3)ccc2n1C,"28.2 µM [rising, single point]","35.5 µM [rising, single point]"
CCOC(=O)c1sc2nc(NC(=O)C(C)(C)C)sc2c1C,"35.5 µM [rising, single point]",
COc1ccc(O)c(C2=Nc3ccccc3N=C(c3cccs3)C2)c1,"35.5 µM [rising, single point]",
CCOC(=O)c1ccc(N2C(=O)C(O)=C(C(C)=O)C2c2ccccc2)cc1 (stereo not drawn),"35.5 µM [rising, single point]",
CCN(CC)S(=O)(=O)c1cccc(-c2nnc(SCCCC(=O)c3ccccc3)o2)c1,"12.6 µM [rising, partial curve]","1.12 µM [rising, full curve, poor fit]"

SMILES,AC50 [1],AC50 [2]
CCN1CCCC1CNC(=O)c1ccc(Sc2ccc(F)cc2)c([N+](=O)[O-])c1 (stereo not drawn),,"0.0251 µM [falling, full curve, poor fit]"
CNC(=O)c1ccc(-c2ccc(Cl)c(Cl)c2)s1,"14.1 µM [falling, partial curve, poor fit]",
O=C(CNc1ccccc1Cl)N/N=C1\CCCc2ccccc21,"35.5 µM [falling, partial curve, poor fit]","22.4 µM [falling, single point]"
O=C(C1CCCN(S(=O)(=O)c2ccccc2[N+](=O)[O-])C1)N1CCN(c2ccccc2)CC1 (stereo not drawn),"3.55 µM [rising, partial curve, poor fit]",
CCc1nnc(NC(=O)Cc2c[nH]c3ccccc23)s1,"0.501 µM [falling, full curve, poor fit]",
CNc1nc(-c2ccccc2)[n+](-c2ccc(C)cc2)s1,"20 µM [rising, single point]",
O=[N+]([O-])c1ccc(Nc2nc(N/N=C/c3cccc(F)c3)nc(N3CCCC3)n2)cc1,"1.41 µM [rising, partial curve]",
Cc1ccc(C)n1-c1ccc(N2CCOCC2)nc1,"35.5 µM [falling, single point]","35.5 µM [falling, single point]"
O=S(=O)(Nc1ccccn1)c1ccc(Oc2ccccc2)cc1,"3.55 µM [rising, single point]","1.78 µM [rising, partial curve, poor fit]"
CN(Cc1ccccc1)CC(O)COc1ccc(CNCCc2ccncc2)cc1 (stereo not drawn),"0.794 µM [falling, partial curve, poor fit]","17.8 µM [falling, partial curve, poor fit]"
Cc1ccc(-c2cc3cccc[n+]3cc2-c2ccc(C)cc2)cc1,"6.31 µM [rising, full curve]","5.01 µM [rising, partial curve]"
CCn1c(COc2cccc(OC)c2)nnc1SCC(=O)Nc1cc(OC)ccc1OC,"15.8 µM [rising, single point]",
CSc1ncc(C(=O)Nc2cc(C)cc(C)c2)c(-c2ccccc2)n1,,"0.0631 µM [falling, full curve]"
Cn1/c(=N/N=C/c2ccccn2)sc2ccccc21,,"7.94 µM [falling, partial curve, poor fit]"
COc1ccc(OC)c(CCNC(=O)c2c(C)oc3ncn(CC(C)C)c(=O)c23)c1,"25.1 µM [rising, partial curve, poor fit]",
O=C(CSCc1ccccc1)N1CCN(c2ccccc2)CC1,,"4.47 µM [rising, full curve, poor fit]"
COc1ccc2[nH]c3c(=O)n4c(nc3c2c1)SCCC4,,"3.55 µM [falling, single point]"
CCOC(=O)COc1ccccc1/C=C1/NC(=O)NC1=O,"4.47 µM [falling, partial curve]",
COc1ccc(C(=O)Nc2nnc(-c3ccccc3)o2)cc1OC,"31.6 µM [rising, single point]","35.5 µM [rising, single point]"

# Single entries from the entries so far.
# AC50 [1], CN(Cc1ccccc1)CC(O)COc1ccc(CNCCc2ccncc2)cc1 (stereo not drawn) reads 0.794 µM [falling, partial curve, poor fit]
# AC50 [1], CNC(=O)c1ccc(-c2ccc(Cl)c(Cl)c2)s1 reads 14.1 µM [falling, partial curve, poor fit]
